# From PubChem BioAssay AID1508586 (ICCB-Longwood Screening Facility, Harvard Medical School, 2020)
# The other results are listed elsewhere or left out.
# Experiment: MELAS cybrid and Rieske KO viability enhancers – cell-based, MELAS cybrids, Rieske KO mouse fibroblasts, CellTiter-Glo, primary screen (AID 1508586);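 further: test concentration not given here; z relative to plate mean and SD of compound and empty wells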
# Conditions: MELAS cybrid survival, low glucose, CellTiter-Glo 48 h; Rieske KO fibroblast survival, 72 h
row,SMILES,z-score
1,CN(CCCl)CCCl,-0.271
